Assay results published in patent EP4541376A1, “ANTIBODY-DRUG CONJUGATES” (priority 2023, dated 2025).
Numbered stars: 1 amine (or outer) side, 2 acyl side, 3 side chain; on linkers, the order of the positions; unused ones are H or OH. Square brackets hold non-standard residues; d marks the D form. Peptide text beside a SMILES is read from it. * marks the point of attachment. Exatecan = CC[C@@]1(O)C(=O)OCc2c1cc1n(c2=O)Cc2c-1nc1cc(F)c(C)c3c1c2[C@@H](N*)CC3; Propanoyl(3-maleimido) = O=C1C=CC(=O)N1CCC(=O)*; PABC = O=C(OCc1ccc(N[*:1])cc1)[*:2]

Assay: Conjugation study PEG versus Glycine: extent of conjugation (DAR) by HIC-UHPLC and PLRP-HPLC
Conditions: conjugated to test antibody
[1] = Target DAR 4, TCEP eq. 3.0, Payload eq. 6.0
[2] = Target DAR 6, TCEP eq. 6.0, Payload eq. 8.0
[3] = Target DAR 8, TCEP eq. 7.5, Payload eq. 10.0

CC[C@@]1(O)C(=O)OCc2c1cc1n(c2=O)Cc2c-1nc1cc(F)c(C)c3c1c2[C@@H](NC(=O)OCc1ccc(NC(=O)[C@H](C)NC(=O)[C@@H](NC(=O)CNC(=O)CNC(=O)CNC(=O)CNC(=O)CNC(=O)CCN2C(=O)C=CC2=O)C(C)C)cc1)CC3 [Mal-Gly5-VA-PABC-Exatecan] ({Propanoyl(3-maleimido)}-GGGGGVA[PABC]-Exatecan)
DAR (HIC) [1]: 4.0
DAR (PLRP) [1]: 3.8
DAR (HIC) [2]: 5.4
DAR (PLRP) [2]: 6.0
DAR (HIC) [3]: 7.3
DAR (PLRP) [3]: 7.9
